Results reported in paper PMC10799014.
These are yes or no findings as the source states them, for the method shown. Binding seen in cells or lysates may run through a third protein. Tags and fused reporters may be left off the sequences shown.

By UniProt entry, the sequences of proteins in these tests, tags left out. Where a name states a change or a piece, a line headed by the entry shows the natural chain unless it says otherwise.
UniProt P18206: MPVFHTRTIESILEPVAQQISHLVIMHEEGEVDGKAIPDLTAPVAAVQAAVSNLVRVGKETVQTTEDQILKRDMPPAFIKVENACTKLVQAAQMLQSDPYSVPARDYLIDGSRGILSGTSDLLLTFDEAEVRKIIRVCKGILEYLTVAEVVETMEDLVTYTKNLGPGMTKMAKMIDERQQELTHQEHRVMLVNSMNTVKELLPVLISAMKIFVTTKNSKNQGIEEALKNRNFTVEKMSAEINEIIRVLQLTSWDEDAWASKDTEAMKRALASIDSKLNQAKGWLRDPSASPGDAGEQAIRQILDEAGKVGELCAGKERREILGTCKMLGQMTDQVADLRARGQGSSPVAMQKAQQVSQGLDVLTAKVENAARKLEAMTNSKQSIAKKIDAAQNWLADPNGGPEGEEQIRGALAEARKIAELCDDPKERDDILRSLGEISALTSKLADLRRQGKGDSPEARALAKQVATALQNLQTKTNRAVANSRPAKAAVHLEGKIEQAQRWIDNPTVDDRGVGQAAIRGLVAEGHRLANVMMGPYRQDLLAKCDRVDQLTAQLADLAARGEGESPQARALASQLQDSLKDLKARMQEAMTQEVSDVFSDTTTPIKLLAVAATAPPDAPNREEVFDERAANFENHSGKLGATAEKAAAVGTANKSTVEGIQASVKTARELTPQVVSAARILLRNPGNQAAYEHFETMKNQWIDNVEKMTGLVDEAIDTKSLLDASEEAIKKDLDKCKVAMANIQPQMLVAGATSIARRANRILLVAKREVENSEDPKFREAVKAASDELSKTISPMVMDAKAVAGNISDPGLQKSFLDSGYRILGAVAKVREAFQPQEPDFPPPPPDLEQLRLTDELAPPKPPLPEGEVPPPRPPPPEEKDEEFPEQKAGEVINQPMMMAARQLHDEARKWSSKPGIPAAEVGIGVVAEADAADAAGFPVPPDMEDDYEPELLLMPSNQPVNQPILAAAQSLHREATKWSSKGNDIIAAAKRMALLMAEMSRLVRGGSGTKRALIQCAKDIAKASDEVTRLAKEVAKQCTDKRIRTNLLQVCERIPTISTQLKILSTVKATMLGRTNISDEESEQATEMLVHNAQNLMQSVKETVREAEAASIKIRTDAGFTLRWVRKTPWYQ

Target: vinculin, Venus-fragment fusion for BiFC (UniProt P18206)
Experiment: split reporter; BiFC with Venus fragments V1 and V2 in HeLa cells, 200 ng of each plasmid, fixed after 24 h, confocal microscopy with uniform laser settings

binding: no binding
B1: rapsyn, Venus-fragment fusion for BiFC (protein, UniProt Q13702 1-412)
chain: MGQDQTKQQIEKGLQLYQSNQTEKALQVWTKVLEKSSDLMGRFRVLGCLVTAHSEMGRYKEMLKFAVVQIDTARELEDADFLLESYLNLARSNEKLCEFHKTISYCKTCLGLPGTRAGAQLGGQVSLSMGNAFLGLSVFQKALESFEKALRYAHNNDDAMLECRVCCSLGSFYAQVKDYEKALFFPCKAAELVNNYGKGWSLKYRAMSQYHMAVAYRLLGRLGSAMECCEESMKIALQHGDRPLQALCLLCFADIHRSRGDLETAFPRYDSAMSIMTEIGNRLGQVQALLGVAKCWVARKALDKALDAIERAQDLAEEVGNKLSQLKLHCLSESIYRSKGLQRELRAHVVRFHECVEETELYCGLCGESIGEKNSRLQALPCSHIFHLRCLQNNGTRSCPNCRRSSMKPGFV
